Patent publication US10479808B1, “Bisphosphonate-based coordination complexes as enhanced pharmaceutical formulations and method of preparing the same” (University of Puerto Rico, priority 2018, dated 2019)

Tests used:
[1] = Dissolution profile in FaSSGF (pH 1.60), ALEN-Cu complexation, UV-Vis; type: physicochemical; details: for dissolution rate (in words): FaSSGF pH 1.60; for maximum release of the ALEN content, complete dissolution profile: up to 20 min
[2] = Dissolution profile in PBS (pH 7.40), ALEN-Cu complexation, UV-Vis; type: physicochemical; details: for dissolution rate (in words): PBS pH 7.40; for maximum release of the ALEN content (percent of ALEN dissolved), complete dissolution profile: up to 20 min
Experimental: Dissolution profiles were performed via Copper (II) complexation with ALEN and quantified by measuring absorbance through UV-Vis spectroscopy. Dissolution profiles were recorded for ALEN sodium reagent, ALEN Sodium Tablets-USP (generic form of Fosamax®), ALEN-Ca forms I and II, and ALEN-Zn forms I and II, and ALEN-Mg. Dissolution tests were performed in 100 mL of PBS buffer (pH=7.40) and FaSSGF (pH=1.60), at 37° C. under constant stirring at 150 rpm. The absorbance of the soluble ALEN-Cu complex was measured at 231 nm in PBS and 225 nm in FaSSGF, against a reagent blank. Absorbance measurements were performed on an Agilent Technologies Cary Series UV-Vis Spectrophotometer, Cary 100 UV-Vis model; using the UV Cary Scan software version v.20.0.470. All measurements were performed with a 400-200 nm scan.
To generate the ALEN-Cu complex, 4 mL of the diluted ALEN solutions were transferred into a series of 25-mL volumetric flasks to achieve an ALEN-Cu concentration range of 0.008-0.11 mg/mL. To each flask, 20 mL of 2.5 mM CuSO4 solution was added, homogenized and completed to volume with nanopure water. The absorbance of the formed ALEN-Cu complex was measured at 231 nm against a reagent blank prepared by the addition of 4 mL PBS buffer and 20 mL of the CuSO4 solution in a 25-mL volumetric flask and completed to volume with nanopore water.
Dissolution profiles were recorded for alendronate sodium reagent (ALEN), Alendronate Sodium Tablets-USP (generic form of Fosamax®), ALEN-Ca form I, ALEN-Ca form II, ALEN-Zn form I, ALEN-Zn form II and ALEN-Mg. Dissolution tests were performed in 100 mL of PBS buffer (pH=7.40), controlling temperature at 37° C. and stirring at 150 rpm. For the alendronate-based coordination complexes, reagent and tablets, 70 mg of the solid were grinded using a mortar and pestle. The powder was added to the PBS solution at the beginning of the dissolution under stirring. Samples of 1.6 mL were collected after 0, 5, 10, 15, 20 and 25 s to record the dissolution for the deglutition profile. For the complete dissolution profile, samples of the exact volume amount were collected from 1-6 min, in one-minute intervals. After the six-minute period, samples for 10, 15 and 20 min were collected. After collection, the samples were filtrated using a PTFE filter. The filtered solutions were placed in 10 mL volumetric flasks. To produce the ALEN-Cu complex, 7.4 mL of the 2.5 mM CuSO4 solution was added and completed to volume with nanopure water. The absorbance of the formed ALEN-Cu complex was measured at 231 nm against a reagent blank prepared by the addition of filtered 1.6 mL PBS buffer in a 10-mL volumetric flask, with 7.4 mL of the 2.5 mM copper (II) sulfate solution and completed to volume with nanopure water. Absorbance measurements were performed on an Agilent Technologies Cary Series UV-Vis Spectrophotometer, Cary 100 UV-Vis model; using the UV Cary Scan software version v.20.0.470. All measurements were performed with a 400-200 nm scan.
Dissolution profiles were performed via copper (II) complexation with alendronate content from the synthesized pBioCPs and quantified by measuring absorbance through UV-Vis spectroscopy. Two standard stock solution of ALEN were prepared by dissolving 100 mg of the drug in a 100-mL volumetric flask with PBS and the other one with FaSSGF. More dilute solutions were obtained by appropriate dilution from these stock solutions. Accurately measured aliquots of the ALEN stock solutions were transferred into a series of 25-mL volumetric flasks to achieve a concentration range of 0.05-0.7 mg/mL. Each solution was completed to the 25-mL mark with PBS and FaSSGF respectively. A calibration curve of ALEN-Cu complex with a concentration range of 0.008-0.11 mg/mL in PBS and 0.006-0.084 mg/mL in FaSSGF was used for indirect alendronate quantification. […]

[3] = oral, reported in literature; cited from earlier work
[4] = FaSSGF pH 1.60, 37 °C, 150 rpm, 70 mg in 100 mL
[5] = PBS pH 7.40, 37 °C, 150 rpm, 70 mg in 100 mL

NCCCC(O)(P(=O)([O-])O)P(=O)([O-])O.O.[Zn+2] [ALEN-Zn form I]
dissolution rate (in words) [1]: moderate to lower dissolution rates | maximum release of the ALEN content, complete dissolution profile [1, 4]: 66% | dissolution rate (in words) [2]: lower dissolution rates | maximum release of the ALEN content (percent of ALEN dissolved), complete dissolution profile [2, 5]: 43%

NCCCC(O)(P(=O)([O-])O)P(=O)([O-])O.O.[Ca+2] [ALEN-Ca form I]
dissolution rate (in words) [2]: moderate dissolution rates | maximum release of the ALEN content (percent of ALEN dissolved), complete dissolution profile [2, 5]: 52%

NCCCC(O)(P(=O)(O)O)P(=O)(O)O [ALEN, Alendronate sodium trihydrate, reference compound]
dissolution rate (in words) [1]: most rapid release | percent of the drug dissolved, early-stage dissolution ([1]; FaSSGF pH 1.60, 37 °C, 150 rpm, 70 mg in 100 mL, after 10 sec): 97% | maximum release of the ALEN content, complete dissolution profile [1, 4]: 100% | percent of ALEN dissolved/released, early-stage dissolution ([2]; PBS pH 7.40, 37 °C, 150 rpm, 70 mg in 100 mL, after 25 sec): 61% | maximum release of the ALEN content (percent of ALEN dissolved), complete dissolution profile [2, 5]: ~80% | absorption of the BP in the intestines [3]: up to 10%
